Measurements reported in the supplement of paper PMC9135407.
Where “and” joins values, the source holds several entries; their conditions need not be identical. Identical values can stand only once. Counter-ions that a name gives are not always drawn. ± gives the standard deviation of the averaged measurements. This is one part of the list. Plates or batches differ in their baseline, so values are only roughly comparable.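 Culture-activated primary human stellate myofibroblasts, where regained lipid droplets signal inactivation. Value: share of Hoechst-counted cells above a per-plate Bodipy cutoff, in duplicate wells, with DMSO negative and nortriptyline positive controls on each plate. Hits: a control-normalized score above the plate's top-tenth-percentile nortriptyline wells, or one of a plate's three best wells. Final well concentrations are not given.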

Test system: primary human hepatic stellate cells (donor 1)
Test: percent Bodipy-positive cells; higher = more lipid droplet accumulation
Details: 48 h
[1] = library stock concentration: 10 mM
[2] = library stock concentration: 3.33 mM
[3] = library stock concentration: 80 uM
[4] = library stock concentration: 400 uM
[5] = library stock concentration: 2 mM
[6] = library stock concentration: 1 mM

Cc1c(N)c(=O)n(-c2ccccc2)n1C [Ampyrone]
percent Bodipy-positive cells: 31.9 ± 2.9%

Nc1cc2c(ncn2CCOCP(=O)(O)O)c(=O)[nH]1 [PMEG hydrate]
percent Bodipy-positive cells [1]: 38.7 ± 12%

O=C(O)c1ccc[n+]([O-])c1
percent Bodipy-positive cells [1]: 28.1 ± 2%

CC1(C)Cc2c(-c3ccccc3)c(-c3ccc(Cl)cc3)c(CC(=O)O)n2C1 [Licofelone]
percent Bodipy-positive cells [2]: 6.9 ± 2.5%
percent Bodipy-positive cells [1]: 13.8 ± 5.7%

CC(C)(C)c1cc(NC(=O)Nc2ccc(-c3cn4c(n3)sc3cc(OCCN5CCOCC5)ccc34)cc2)no1
percent Bodipy-positive cells [3]: 9.76 ± 1.8%
percent Bodipy-positive cells [4]: 14.4 ± 7.5%
percent Bodipy-positive cells [5]: 24.8 ± 4%
percent Bodipy-positive cells [1]: 43.8 ± 12%

CC(C)(C)c1cc(NC(=O)Nc2ccc(-c3cn4c(n3)sc3cc(OCCN5CCOCC5)ccc34)cc2)no1 [Quizartinib (AC220)]
percent Bodipy-positive cells [2]: 29.7 ± 0.42%

CC(C)(C)c1cc(NC(=O)Nc2ccc(-c3cn4c(n3)sc3cc(OCCN5CCOCC5)ccc34)cc2)no1 [Quizartinib  (AC220) (0.4 mM)]
percent Bodipy-positive cells [4]: 25.7 ± 5.7%

C=C/C(C)=C/[C@@]1(C)SC(=O)C(C)=C1O [Thiolactomycin]
percent Bodipy-positive cells [1]: 21.2 ± 4.4%

Cc1nc(-c2ccc(C(F)(F)F)cc2)sc1C(=O)NCc1ccc(OC(C)(C)C(=O)O)cc1
percent Bodipy-positive cells [6]: 22.9 ± 17%

O=C(CCc1ccncc1)NNC(=O)N1Cc2ccccc2Oc2ccc(Cl)cc21
percent Bodipy-positive cells [1]: 39.9 ± 10%

CCOC(=O)Nc1nc2ccccc2[nH]1 [Lobendazole]
percent Bodipy-positive cells (library stock concentration: 9.7 mM): 9.8 ± 2.9%

O=c1c(O)c(-c2ccc(O)cc2)oc2cc(O)cc(O)c12 [Kaempferol]
percent Bodipy-positive cells: 12.2 ± 0.36%
percent Bodipy-positive cells [2]: 16.6 ± 2.7%
percent Bodipy-positive cells [1]: 26.9% and 13.4%

COc1cc2nc(N3CCN(C(=O)C4COc5ccccc5O4)CC3)nc(N)c2cc1OC (stereo not drawn) [Doxazosin mesylate]
percent Bodipy-positive cells: 21.5 ± 1.8%
percent Bodipy-positive cells (library stock concentration: 4.4 mM): 18.6 ± 0.46%
percent Bodipy-positive cells [1]: 97.3 ± 1.1%

COc1cc2nc(N3CCN(C(=O)C4COc5ccccc5O4)CC3)nc(N)c2cc1OC (stereo not drawn) [Doxazosin Mesylate]
percent Bodipy-positive cells [2]: 24.1 ± 10%
percent Bodipy-positive cells [1]: 95.4 ± 1.9%

COc1cc2nc(N3CCN(C(=O)C4COc5ccccc5O4)CC3)nc(N)c2cc1OC (stereo not drawn) [Doxazosin]
percent Bodipy-positive cells [1]: 79.2 ± 5.9%

CC(=O)Nc1ccc(OC(=O)c2ccccc2O)cc1 [Acetaminosalol]
percent Bodipy-positive cells [1]: 17.2 ± 3.5%

N#C/C(=C(/N)Sc1ccc(N)cc1)c1ccccc1C(F)(F)F
percent Bodipy-positive cells [2]: 8.09 ± 4%
percent Bodipy-positive cells [1]: 17.4% and 5.29%

CC(C)(CCCCCCCCCCC(C)(C)CC(=O)O)CC(=O)O
percent Bodipy-positive cells [6]: 6.98 ± 0.85%

COc1cc(OC)c2ccc(=O)oc2c1 [Citropten]
percent Bodipy-positive cells [1]: 31.6 ± 15%

CCCc1ccc(OCC(=O)N(Cc2nc(-c3cccnc3)no2)C(C)C)cc1
percent Bodipy-positive cells [2]: 26.3 ± 3.3%
percent Bodipy-positive cells [1]: 57.7 ± 3%

COc1cc(OC)c(NC(=O)Nc2cc(C)on2)cc1Cl
percent Bodipy-positive cells [2]: 24.2 ± 8.9%
percent Bodipy-positive cells [1]: 22.3% and 34.9%

C[C@H]1O[C@@H](O[C@H]2[C@@H](O)C[C@H](O[C@H]3[C@@H](O)C[C@H](O[C@H]4CC[C@]5(C)C6CC[C@]7(C)[C@@H](C8=CC(=O)OC8)CC[C@]7(O)C6CC[C@@H]5C4)O[C@@H]3C)O[C@@H]2C)C[C@H](O)[C@@H]1O (stereo partly drawn) [Digitoxin]
percent Bodipy-positive cells (library stock concentration: 2.6 mM): 71.1 ± 6.5%

CC(C)NCCCn1c(Sc2cc3c(cc2I)OCO3)nc2c(N)ncnc21
percent Bodipy-positive cells [1]: 94.2 ± 1.1%

O=C(CCBr)N1CCN(C(=O)CCBr)CC1 [Pipobroman]
percent Bodipy-positive cells [1]: 39.2 ± 8%

CNC(=O)c1ccc(N2C(=S)N(c3ccc(C#N)c(C(F)(F)F)c3)C(=O)C2(C)C)cc1F [Enzalutamide (MDV3100)]
percent Bodipy-positive cells [2]: 11.3 ± 1.2%
percent Bodipy-positive cells [1]: 16.9 ± 1.9%

CNC(=O)c1ccc(N2C(=S)N(c3ccc(C#N)c(C(F)(F)F)c3)C(=O)C2(C)C)cc1F [Enzalutamide]
percent Bodipy-positive cells [3]: 9.06 ± 3.1%
percent Bodipy-positive cells [4]: 10.6 ± 5.3%
percent Bodipy-positive cells [5]: 11 ± 9.4%
percent Bodipy-positive cells [1]: 4.77 ± 1.3%

N[C@H]1CONC1=O
percent Bodipy-positive cells [1]: 36 ± 7.7%

N[C@H]1CONC1=O [L-Cycloserine]
percent Bodipy-positive cells [1]: 31 ± 5.7%

N[C@H]1CONC1=O [(S)-(-)-Cycloserine]
percent Bodipy-positive cells: 9.48 ± 5.9%

CCCCC1C(=O)N(c2ccccc2)N(c2ccc(O)cc2)C1=O (stereo not drawn) [Oxyphenbutazone]
percent Bodipy-positive cells: 35.7 ± 1.7%
percent Bodipy-positive cells (library stock concentration: 6.2 mM): 89.8 ± 3%
percent Bodipy-positive cells [1]: 13.2 ± 1.1%

CC#CCn1c(N2CCC[C@@H](N)C2)nc2c1c(=O)n(Cc1nc(C)c3ccccc3n1)c(=O)n2C [Linagliptin]
percent Bodipy-positive cells [2]: 7.61 ± 0.61%
percent Bodipy-positive cells [1]: 25.3 ± 5.9%

COc1ccc2c3n(c(=NC(=O)c4cccnc4)nc2c1OC)CCN3
percent Bodipy-positive cells [4]: 13.6 ± 5.6%
percent Bodipy-positive cells [5]: 21 ± 4.8%
percent Bodipy-positive cells [1]: 26.1 ± 13%

CCN(CC)CCOCCOC(=O)C1(c2ccccc2)CCCC1 [Carbetapentane citrate]
percent Bodipy-positive cells: 63.4 ± 1%

CCN(CC)CCOCCOC(=O)C1(c2ccccc2)CCCC1 [Pentoxyverine Citrate]
percent Bodipy-positive cells [2]: 17.7 ± 2.3%
percent Bodipy-positive cells [1]: 71.8 ± 15%

CC/C=C/C[C@H](O)/C=C/[C@H]1[C@H](O)CC(=O)[C@@H]1C/C=C\CCCC(=O)O [17-trans Prostaglandin E3]
percent Bodipy-positive cells [6]: 24.1 ± 5.9%

C[C@@H]1C[C@H]2[C@@H]3CCC4=CC(=O)C=C[C@]4(C)[C@@]3(F)[C@@H](O)C[C@]2(C)[C@H]1C(=O)CO
percent Bodipy-positive cells [1]: 11.5 ± 8.5%
